According to article PMC12090772:
Results are given in words; binding and its absence hold for the method and conditions named. Binding seen in cells or lysates may run through a third protein. Binding can be weak; no strength is given.

Molecular target: T1, Vpx HIV-2 Gh (HIV-2 (Ghana-1 strain)) (UniProt P18045)
T1 sequence: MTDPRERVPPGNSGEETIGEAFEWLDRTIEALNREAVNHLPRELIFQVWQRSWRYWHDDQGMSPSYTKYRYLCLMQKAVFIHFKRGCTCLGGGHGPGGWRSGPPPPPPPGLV
Experiment: co-IP; HA-Vpr/Vpx constructs expressed in OMK cells; anti-HA immunoprecipitation; endogenous DCAF1 revealed by Western blot

With “owl monkey DCAF1 (endogenous in OMK cells)” the binding was “binds”.
